From article PMC7915902, “Preclinical Evaluation of [^18F]FACH in Healthy Mice and Piglets: An ^18F-Labeled Ligand for Imaging of Monocarboxylate Transporters with PET” (International Journal of Molecular Sciences, 2021)

Key:
MCTs [1] = assay: Compartmental kinetic modelling of PET data in mice; type: in vivo, mouse; details: after reference compound pre-treatment
Procedure: (§1) Table 4 includes the results of 1-tissue-compartment kinetic modelling (1-TCM) of [^18F]FACH in the kidney cortex and the liver of the control and pre-treated mouse groups (α-CCA-Na and reference compound). […] The BPND was estimated as the ratio of [VT(control)/VT(pre-treatment)] − 1.
(§2) Kinetic analysis of reconstructed datasets was performed with PMOD software. First, image derived arterial input functions (IDIFs) were obtained from the left ventricle in mice and from an artery close to the kidney in piglet studies. IDIFs were corrected for partial volume effects, plasma fraction from hematocrit values (individually determined for each piglet directly before PET imaging; for mice set to 0.51 according to CD-1 Mouse Hematology sheet from Charles River Laboratories, 2011) and radio-metabolites (measured for piglets, and set to zero for mice). Tri-exponential metabolite-corrected fitted input functions were used for one and two tissue compartment modelling (1-TCM/2-TCM) of time activity curves (TACs) in tissue volumes of interest (VOIs). For both species the specific blood volume was set to 0.15 mL g^−1 in the kidney cortex and 0.128 mL g^−1 in the liver, according to published values.

MCTs [2] = assay: Compartmental kinetic modelling of PET data in piglets; type: in vivo, piglet
Procedure: as §1, §2

MCTs [3] = assay: Autoradiographic saturation binding (homologous displacement) in mouse kidney cryosections
Procedure: Cryosections from the mouse kidney (10 µm) were cut on a microtome (Microm HM560, Thermo Scientific Microm, Fisher Scientific GmbH, Schwerte, Germany), mounted on glass slides (SuperFrost, Thermo Scientific Menzel, Fisher Scientific GmbH), dried for two hours at room temperature, and stored at −25 °C. Before the binding experiment, the tissue slices were dried under a stream of cold air, pre-incubated with PBS (pH 7.4) for 15 min at room temperature and dried again before incubation with PBS containing [^18F]FACH (1.2 nM) without (total binding) and with different concentrations of FACH-Na (10 µM–0.1 nM; homologous competition) for 60 min. Specific binding to MCTs of [^18F]FACH in cryosections of mouse kidney was determined after co-incubation of 1 nM [^18F]FACH with vehicle or 300 nM α-CCa-Na or 300 nM reference compound (homologous competition).
The incubation was terminated by washing with ice-cold buffer (50 mM TRIS-HCl, pH 7.4) twice for two minutes followed by dipping in ice-cold demineralized water for 5 s and drying under a stream of cold air. The dried sections along with activity standards (1 µL aliquots of different dilutions of the incubation solution dried on microscopic slides) were exposed to phosphor imaging plates (FujiFilm Co., Tokyo, Japan) transferred after 120 min to a phosphor imager (HD-CR 35 Bio; Dürr NDT GmbH & Co. KG, Bietigheim-Bissingen, Germany). Regions of interest (ROIs) were drawn manually or automatically on the tissue slices or standard spots, and the pixelwise results converted to Bq/mg wet weight. Non-linear regression analysis was performed with GraphPad Prism (v.3.0 GraphPad Software, San Diego, CA, USA). KD and Bmax values were calculated by the simplified Cheng and Prusoff equation (http://www3.uah.es/farmamol/Public/GraphPad/radiolig.htm, accessed on 5 February 2021):(1) KD=Ki=IC50−Radioligand (M) (2) Bmax=Top−Bottom/Radioligand (M)/(KD+Radioligand (M))

CCCN(CCCF)c1ccc(/C=C(\C#N)C(=O)[O-])c(OC)c1.[Na+] [FACH-Na]
increase of k2 of [18F]FACH in kidney cortex (MCTs [1]): more than 30 fold

CCCN(CCC[18F])c1ccc(/C=C(\C#N)C(=O)O)c(OC)c1 [[^18F]FACH, (E)-2-cyano-3-{4-[(3-[^18F]fluoropropyl)(propyl)amino]-2-methoxyphenyl}acrylic acid]
VT in piglet kidney cortex higher than in mice (MCTs [2]; kidney cortex, piglets vs mice): approximately 25%
Bmax (MCTs [3]; mouse kidney cortex (Co) cryosections): 6.0 pmol/mg wet weight
Bmax (MCTs [3]; mouse kidney inner medulla (IM) cryosections): 2.4 pmol/mg wet weight
Bmax (MCTs [3]; mouse kidney outer medulla (OM) cryosections): 5.4 pmol/mg wet weight

N#CC(=Cc1ccc(O)cc1)C(=O)[O-].[Na+] [α-CCA-Na, reference compound]
increase of k2 of [18F]FACH in kidney cortex (MCTs [2]; piglets, after α-CCA-Na pre-treatment): 2.8 fold
